The target in this assay is T1, CDX2 (human (endogenous in AGS)) (UniProt Q99626).
T1 sequence: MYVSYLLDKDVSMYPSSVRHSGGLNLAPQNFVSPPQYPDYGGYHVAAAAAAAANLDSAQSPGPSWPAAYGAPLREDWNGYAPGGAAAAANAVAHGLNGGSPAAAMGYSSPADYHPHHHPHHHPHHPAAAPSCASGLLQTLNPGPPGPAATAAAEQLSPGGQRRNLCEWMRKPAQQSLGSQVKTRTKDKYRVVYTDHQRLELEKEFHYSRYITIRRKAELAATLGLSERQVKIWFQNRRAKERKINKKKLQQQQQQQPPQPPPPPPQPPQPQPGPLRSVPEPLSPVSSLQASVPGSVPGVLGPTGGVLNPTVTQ
Description: co-IP; endogenous proteins in AGS cell lysate (Pierce IP Lysis Buffer); rabbit anti-Sox2 mAb and rabbit anti-CDX2 mAb as capture antibodies on protein G magnetic beads; normal rabbit IgG as negative control; western blot of the eluate; the legend calls it cross-linking Co-IP. Background: A western blot detects proteins with antibodies after separation by electrophoresis.

By UniProt entry, the sequences of proteins in these tests, tags left out.
UniProt P48431: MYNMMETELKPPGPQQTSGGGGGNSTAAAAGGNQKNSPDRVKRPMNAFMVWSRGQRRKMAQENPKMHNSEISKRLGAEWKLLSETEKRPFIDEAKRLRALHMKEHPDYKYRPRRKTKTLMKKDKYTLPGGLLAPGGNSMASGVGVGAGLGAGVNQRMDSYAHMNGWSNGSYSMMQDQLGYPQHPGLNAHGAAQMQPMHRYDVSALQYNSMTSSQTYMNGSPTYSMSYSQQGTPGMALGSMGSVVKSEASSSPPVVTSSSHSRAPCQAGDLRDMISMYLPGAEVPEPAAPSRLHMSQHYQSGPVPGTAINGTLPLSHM

No constants are given. Whether binding was seen depends on the method and setting. Binding seen in cells or lysates may run through a third protein. Some entries that bind do so weakly or less than the wild type.

Turning to SOX2 (from UniProt P48431 1-317), the binding entry is “binds”.

These data come from article PMC6357452.
